The assay has as its target Krüppel-like factor 10 (KLF10) (human (endogenous in HepG2)) (UniProt Q13118). Description: co-IP; HepG2 cell extracts incubated with anti-KLF10 (normal mouse immunoglobulin as negative control) 1 h at 4°C, protein G Sepharose 4 h; Western blot for AMPK α1, β1, γ1.

Amino acid sequences for entries named in this document (tags omitted).
UniProt Q13118: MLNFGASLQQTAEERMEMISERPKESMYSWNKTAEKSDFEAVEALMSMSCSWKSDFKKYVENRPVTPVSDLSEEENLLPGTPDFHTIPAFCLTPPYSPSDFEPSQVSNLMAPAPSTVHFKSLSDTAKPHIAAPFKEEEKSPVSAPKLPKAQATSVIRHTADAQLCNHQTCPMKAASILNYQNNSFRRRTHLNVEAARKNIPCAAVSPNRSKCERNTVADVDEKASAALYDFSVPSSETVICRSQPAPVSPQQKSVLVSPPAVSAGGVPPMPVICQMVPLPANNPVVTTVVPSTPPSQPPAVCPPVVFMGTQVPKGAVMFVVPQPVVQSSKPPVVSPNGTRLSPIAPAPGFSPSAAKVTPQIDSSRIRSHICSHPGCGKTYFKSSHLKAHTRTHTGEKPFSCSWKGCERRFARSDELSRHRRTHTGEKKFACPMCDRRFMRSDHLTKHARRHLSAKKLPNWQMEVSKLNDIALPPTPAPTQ
UniProt P54619: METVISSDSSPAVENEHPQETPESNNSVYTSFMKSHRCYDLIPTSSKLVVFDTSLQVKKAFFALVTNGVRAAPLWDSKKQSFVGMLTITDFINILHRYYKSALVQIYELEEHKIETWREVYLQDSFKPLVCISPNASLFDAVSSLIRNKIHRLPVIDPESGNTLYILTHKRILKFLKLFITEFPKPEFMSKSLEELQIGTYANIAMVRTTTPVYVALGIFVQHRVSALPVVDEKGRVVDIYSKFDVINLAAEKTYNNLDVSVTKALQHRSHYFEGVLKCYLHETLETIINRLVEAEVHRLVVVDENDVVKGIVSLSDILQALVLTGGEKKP

The results in this text go back to publication PMC8633436.

Results are given in words; binding and its absence hold for the method and conditions named. Binding seen in cells or lysates may run through a third protein. Some results given as binding are weak or reduced against the parent protein; the word gives no strength.

Take “AMP-activated protein kinase regulatory subunit γ1 (AMPK γ1) (from UniProt P54619 1-331)”: the binding entry was “binds”.
